Some of these results come from one statement about several compounds together.
Experiment: Stability and size of micro-dispersions in distilled water
Assay type: physicochemical
Method: The particle size of the redispersed solutions of γ-PGA/Ptx and γ-PGA/Imq was measured using Electrophoretic Light Scattering-ELS Z (Otsuka Electronics, Osaka, Japan). The stability of the dispersion was assessed by observing the samples for aggregation and phase separation after storing the sample at 4° C. for 1 week after dispersion in distilled water. The morphology of theses micro-dispersions were observed through FE-SEM (JSM-7000F, JEOL Ltd. Japan) and FE-TEM (JEM-2100F HR, JEOL Ltd. Japan). For the SEM sample preparation, the lyophilized and redispersed suspension was deposited on a silicon wafer plate and vacuum-dried to remove water, followed by platinum coating using a Technics Hummer II sputter coater at 30 mA for 90 s. For TEM sample preparation, a drop (2 μL) of redispersed suspension was placed onto a formvar/carbon coated copper grid, followed by vacuum-drying to evaporate water.
Distinct monodisperse peaks for γ-PGA/Imq and γ-PGA/Ptx/Imq were observed, indicating uniform size distribution (FIG. 3). In case of γ-PGA/Ptx, two peaks were observed, which might be due to a high aspect ratio of the paclitaxel crystal.

Structure (SMILES) | time stably dispersed / redispersed in γ-PGA matrix
CC(C)Cn1cnc2c(N)nc3ccccc3c21 [imiquimod] | more than 6 months
CC(=O)O[C@H]1C(=O)[C@@]2(C)[C@H]([C@H](OC(=O)c3ccccc3)[C@]3(O)C[C@H](OC(=O)[C@H](O)[C@@H](NC(=O)c4ccccc4)c4ccccc4)C(C)=C1C3(C)C)[C@]1(OC(C)=O)CO[C@@H]1C[C@@H]2O [paclitaxel] | more than 6 months
